Tested on: seizure threshold current for tonic hind limb extensor convulsions in mice
Test: Maximal electroshock seizure threshold (MEST) test in the mouse
Conditions: 2.5 mg/kg i.p., pre-treatment time 30 min
Experimental: The efficacy of 6-OH CBD was tested in a mouse model of generalised seizure, the maximal electroshock seizure threshold (MEST) test.
In the MEST test the ability of a drug to alter the seizure threshold current required to induce hind limb tonic extensor convulsions is measured according to an “up and down” method of shock titration (Kimball et al., 1957). An increase in seizure threshold is indicative of anti-convulsant effect.
The ability of a test compound to alter the stimulus intensity, expressed as current (mA), required to induce the presence of tonic hind limb extensor convulsions, is assessed in the MEST.
Naïve mice were acclimatised to the procedure room in their home cages for up to 7 days, with food and water available ad libitum.
All animals were weighed at the beginning of the study and randomly assigned to treatment groups based on a mean distribution of body weight across groups.
The first animal within a treatment group was given a shock at the expected or estimated CC50 current. For subsequent animals, the current was lowered or raised depending on the convulsions outcome from the preceding animal. […]
6-OH CBD effects were also calculated as percentage change in CC50 from the vehicle control group.
Significant difference between drug-treated animals and controls were assessed according to Litchfield and Wilcoxon (1949).

CN1C(=O)CN=C(c2ccccc2)c2cc(Cl)ccc21 [Diazepam, diazepam, reference compound] was tested, and the “CC50 ± SEM” value was 48.8 ± 1.1 mA and the “CC50 ± SEM” value (listed as diazepam) was 48.8 mA.

Reference: patent publication US12383512B2, “Cannabidiol-type cannabinoid compound” (Jazz Pharmaceuticals Research UK LImited, priority 2019, dated 2025)
